Laboratory results reported in patent publication US7790673.
Results are given in words; binding and its absence hold for the method and conditions named. For part of these data: In cells and extracts the contact can be indirect. Some entries that bind do so weakly or less than the wild type. Each block holds one binder with its values, some of them ahead of it.

The chains behind the UniProt entries cited, without tags or fusion partners. Residues count along the entry.
GST-Aβ1-42 fusion protein (P05067, residues 672-713): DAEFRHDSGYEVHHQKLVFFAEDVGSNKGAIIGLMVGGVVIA
Aβ1-40 synthetic peptide (P05067, residues 672-711): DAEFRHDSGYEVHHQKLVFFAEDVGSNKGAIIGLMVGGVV

Legend:
Aβ1-40 synthetic peptide [1] = target: Aβ1-40 synthetic peptide (UniProt P05067); experiment: ELISA, Aβ1-40-coated wells, 3 hours at 37° C.
Aβ1-42 synthetic peptide [2] = target: Aβ1-42 synthetic peptide (UniProt P05067); experiment: ELISA, Aβ1-42-coated wells, 3 hours at 37° C.
Aβ1-42 synthetic peptide [3] = target: Aβ1-42 synthetic peptide (UniProt P05067); experiment: ELISA, Aβ1-42-coated wells, 0-37.5 nM cystatin C
Aβ1-40 synthetic peptide [4] = target: Aβ1-40 synthetic peptide (UniProt P05067); experiment: ELISA, Aβ1-40-coated wells, 0-37.5 nM cystatin C
[5] = target: GST-Aβ1-42 fusion protein (UniProt P05067); experiment: GST pull-down of HEK293 media proteins on GST-Aβ1-42, immunoblot with anti-cystatin C antibody
[6] = target: GST-Aβ1-42 fusion protein (UniProt P05067); experiment: GST pull-down from HEK293 culture media, immunoblot with anti-cystatin C antibody

binding (Aβ1-40 synthetic peptide [1]): binds
binding (Aβ1-42 synthetic peptide [2]): binds
binding (Aβ1-42 synthetic peptide [3]): binds
binding (Aβ1-40 synthetic peptide [4]): binds
B1: urinary cystatin C (Calbiochem Biosciences) (protein, human, UniProt P01034 27-146, looked up)
chain: SSPGKPPRLVGGPMDASVEEEGVRRALDFAVGEYNKASNDMYHSRALQVVRARKQIVAGVNYFLDVELGRTTCTKTQPNLDNCPFHDQPHLKRKAFCSFQIYAVPWQGTMTLSKSTCQDA

binding [5]: binds
binding [6]: binds
B2: wild type human cystatin C (protein, UniProt P01034 27-146, looked up)
chain: B1 chain
